Consider seven substances from doi:10.1101/458190.

The chains behind the UniProt entries cited, without tags or fusion partners. Where a name states a change or a piece, a line headed by the entry shows the natural chain unless it says otherwise. Residues count along the entry.
UniProt Q13485: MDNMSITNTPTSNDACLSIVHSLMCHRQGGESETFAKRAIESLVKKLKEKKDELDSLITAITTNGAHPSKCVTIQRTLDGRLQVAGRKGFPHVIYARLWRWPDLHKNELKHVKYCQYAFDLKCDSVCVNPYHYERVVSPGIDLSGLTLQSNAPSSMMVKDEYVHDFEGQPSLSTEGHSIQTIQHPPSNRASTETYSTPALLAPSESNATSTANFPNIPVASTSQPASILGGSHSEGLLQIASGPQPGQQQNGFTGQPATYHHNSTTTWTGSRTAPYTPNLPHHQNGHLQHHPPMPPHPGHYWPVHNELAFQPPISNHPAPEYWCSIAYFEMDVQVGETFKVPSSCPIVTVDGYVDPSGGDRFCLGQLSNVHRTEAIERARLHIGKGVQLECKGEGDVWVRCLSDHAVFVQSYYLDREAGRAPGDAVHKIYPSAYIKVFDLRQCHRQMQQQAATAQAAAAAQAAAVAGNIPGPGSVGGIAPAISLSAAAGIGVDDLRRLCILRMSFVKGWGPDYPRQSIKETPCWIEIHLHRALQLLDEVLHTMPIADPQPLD
Halo-SMAD4_1-320: residues 1-320 of Q13485
Halo-SMAD4_1-140: residues 1-140 of Q13485
Halo-SMAD4_140-552: residues 140-552 of Q13485
Halo-SMAD4_320-552: residues 320-552 of Q13485
UniProt P84022: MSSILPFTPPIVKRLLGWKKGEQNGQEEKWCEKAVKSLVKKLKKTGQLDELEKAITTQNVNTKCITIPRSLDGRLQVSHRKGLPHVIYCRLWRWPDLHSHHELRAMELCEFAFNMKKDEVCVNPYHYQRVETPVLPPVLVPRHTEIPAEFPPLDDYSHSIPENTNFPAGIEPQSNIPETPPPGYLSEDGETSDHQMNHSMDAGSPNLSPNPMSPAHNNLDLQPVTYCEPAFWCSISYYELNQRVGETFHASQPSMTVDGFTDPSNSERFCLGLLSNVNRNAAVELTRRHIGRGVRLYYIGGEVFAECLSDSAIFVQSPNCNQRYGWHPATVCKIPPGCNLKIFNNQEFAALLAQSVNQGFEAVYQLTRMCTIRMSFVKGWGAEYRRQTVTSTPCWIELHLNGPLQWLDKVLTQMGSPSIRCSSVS
UniProt Q15796: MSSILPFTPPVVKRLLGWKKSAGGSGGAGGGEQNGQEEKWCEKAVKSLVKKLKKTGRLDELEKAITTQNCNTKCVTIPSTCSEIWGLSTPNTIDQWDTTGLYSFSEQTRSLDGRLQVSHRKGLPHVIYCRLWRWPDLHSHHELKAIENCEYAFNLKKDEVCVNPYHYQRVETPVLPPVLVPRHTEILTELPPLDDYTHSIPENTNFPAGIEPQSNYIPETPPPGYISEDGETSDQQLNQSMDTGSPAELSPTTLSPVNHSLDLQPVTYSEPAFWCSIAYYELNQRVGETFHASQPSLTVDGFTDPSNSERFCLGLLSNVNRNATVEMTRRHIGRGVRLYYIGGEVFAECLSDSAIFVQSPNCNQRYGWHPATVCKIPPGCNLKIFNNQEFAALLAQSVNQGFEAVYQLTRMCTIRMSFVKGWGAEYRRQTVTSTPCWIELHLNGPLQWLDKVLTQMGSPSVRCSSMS

The target in one experiment is GFP-SMAD4 (human) (UniProt Q13485). Nature of the experiment: co-IP.
The next experiment deals with BRK-Y447F (human) (UniProt Q13882). Nature of the experiment: co-IP.
The target of experiment [1] is Halo-SMAD4_320-552 (human) (UniProt Q13485). Nature of the experiment: pull-down.
Another experiment deals with Halo-SMAD4_1-320 (human) (UniProt Q13485). Nature of the experiment: pull-down.
Another experiment addresses Halo-SMAD4_1-140 (human) (UniProt Q13485). Nature of the experiment: pull-down.
For experiment [2], the target named is Halo-SMAD4_140-552 (human) (UniProt Q13485). Nature of the experiment: pull-down.
The target in the next experiment is GFP-SMAD3 (UniProt P84022). Nature of the experiment: co-IP.
Another experiment deals with GFP-SMAD2 (UniProt Q15796). Nature of the experiment: co-IP.

No constants are given. Whether binding was seen depends on the method and setting. Binding seen in cells or lysates may run through a third protein. Some binding calls cover weakened binding; strength is not graded here.

With “BRK-WT (from UniProt Q13882 1-451) (enzyme)”, in the experiment with GFP-SMAD4 (human), the binding result was “binds”.

Consider “BRK-W44A (from UniProt Q13882 1-451) (enzyme)”, for which the binding result with GFP-SMAD4 (human) is reported as “binds”.

Regarding GFP-SMAD2 (from UniProt Q15796 1-467), the binding result in the experiment with BRK-Y447F (human) is “binds”.

For GFP-SMAD3 (from UniProt P84022 1-425), the binding result in the experiment with BRK-Y447F (human) is listed as “binds”.

Consider “SNAP-Flag-BRK-YF (from UniProt Q13882 1-451) (enzyme)”, for which the binding entry (in experiment [1]; with Halo-SMAD4_1-320 (human); with Halo-SMAD4_1-140 (human); in experiment [2]) was “binds” each time.

As for GFP-SMAD4 (from UniProt Q13485 1-552), the binding entry with BRK-Y447F (human) is “binds”.

With “BRK-Y447F (from UniProt Q13882 1-451) (enzyme)”, the binding result with GFP-SMAD4 (human), with GFP-SMAD3 and in the experiment with GFP-SMAD2 was “binds” in each case.
